Results are given in words; binding and its absence hold for the method and conditions named. Some entries that bind do so weakly or less than the wild type.
How the values were obtained:
[1] = molecular target: Trigger Factor (tig-TEV-Avi) (E. coli) (UniProt P0A850); test: selective ribosome profiling (SeRP); affinity purification of TF-TEV-Avi with ribosome-nascent chain complexes from E. coli lysate, no chemical cross-linking; ribosome footprints sequenced, enrichment over the total translatome
[2] = molecular target: DnaK (E. coli (endogenous in E. coli cells)) (UniProt P0A6Y8); test: selective ribosome profiling (SeRP); immunoprecipitation of DnaK (anti-DnaK antibody on Dynabeads) with ribosome-nascent chain complexes; ATP depleted with hexokinase; MNase digest, sucrose cushion; ribosome footprints sequenced
[3] = molecular target: GroEL (E. coli (endogenous in MC4100)) (UniProt P0A6F5); test: selective ribosome profiling (immunoprecipitation of chaperone-bound ribosome-nascent chain complexes, sequencing of the mRNA footprints); GroEL immunoprecipitated with anti-GroEL antibody from ATP-depleted lysate cross-linked with 60 mM EDC; WT, Δtig and ΔdnaK strain backgrounds; selected translatome normalised by the total translatome
[4] = molecular target: DnaK (E. coli (endogenous in MC4100)) (UniProt P0A6Y8); test: selective ribosome profiling (immunoprecipitation of chaperone-bound ribosome-nascent chain complexes, sequencing of the mRNA footprints); DnaK immunoprecipitated with anti-DnaK antibody on Dynabeads from ATP-depleted (hexokinase) lysate after MNase digest and sucrose cushion; selected translatome normalised by the total translatome

Protein sequences, listed by entry. Tags and fused reporters are not part of them.
UniProt P0A850: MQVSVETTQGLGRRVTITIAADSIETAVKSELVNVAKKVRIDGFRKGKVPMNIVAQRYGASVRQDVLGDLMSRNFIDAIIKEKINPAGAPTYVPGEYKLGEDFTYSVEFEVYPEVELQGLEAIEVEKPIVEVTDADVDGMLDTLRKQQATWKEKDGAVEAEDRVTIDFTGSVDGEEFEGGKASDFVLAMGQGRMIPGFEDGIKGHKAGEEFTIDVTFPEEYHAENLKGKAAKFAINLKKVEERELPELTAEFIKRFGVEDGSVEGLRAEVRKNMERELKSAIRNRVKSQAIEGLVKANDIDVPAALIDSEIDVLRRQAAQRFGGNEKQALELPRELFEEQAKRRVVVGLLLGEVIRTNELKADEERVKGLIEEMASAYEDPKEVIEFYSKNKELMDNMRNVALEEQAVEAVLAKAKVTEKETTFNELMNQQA
UniProt P0A6Y8: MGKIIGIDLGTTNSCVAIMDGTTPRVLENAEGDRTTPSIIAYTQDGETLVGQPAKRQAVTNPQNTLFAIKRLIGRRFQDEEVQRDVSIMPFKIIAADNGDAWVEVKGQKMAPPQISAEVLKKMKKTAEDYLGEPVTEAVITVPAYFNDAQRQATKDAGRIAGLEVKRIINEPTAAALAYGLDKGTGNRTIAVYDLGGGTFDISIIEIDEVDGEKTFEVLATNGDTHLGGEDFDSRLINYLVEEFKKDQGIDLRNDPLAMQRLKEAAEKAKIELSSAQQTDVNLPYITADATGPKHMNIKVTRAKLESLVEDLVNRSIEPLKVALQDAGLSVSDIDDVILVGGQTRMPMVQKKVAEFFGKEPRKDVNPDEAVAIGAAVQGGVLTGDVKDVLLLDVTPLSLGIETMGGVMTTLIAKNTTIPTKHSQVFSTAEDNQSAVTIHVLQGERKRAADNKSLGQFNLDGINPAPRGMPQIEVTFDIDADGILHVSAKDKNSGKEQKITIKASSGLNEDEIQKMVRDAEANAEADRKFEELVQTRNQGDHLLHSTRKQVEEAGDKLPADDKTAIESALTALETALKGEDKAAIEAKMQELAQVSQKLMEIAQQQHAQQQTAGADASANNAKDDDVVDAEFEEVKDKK
UniProt P0A6F5: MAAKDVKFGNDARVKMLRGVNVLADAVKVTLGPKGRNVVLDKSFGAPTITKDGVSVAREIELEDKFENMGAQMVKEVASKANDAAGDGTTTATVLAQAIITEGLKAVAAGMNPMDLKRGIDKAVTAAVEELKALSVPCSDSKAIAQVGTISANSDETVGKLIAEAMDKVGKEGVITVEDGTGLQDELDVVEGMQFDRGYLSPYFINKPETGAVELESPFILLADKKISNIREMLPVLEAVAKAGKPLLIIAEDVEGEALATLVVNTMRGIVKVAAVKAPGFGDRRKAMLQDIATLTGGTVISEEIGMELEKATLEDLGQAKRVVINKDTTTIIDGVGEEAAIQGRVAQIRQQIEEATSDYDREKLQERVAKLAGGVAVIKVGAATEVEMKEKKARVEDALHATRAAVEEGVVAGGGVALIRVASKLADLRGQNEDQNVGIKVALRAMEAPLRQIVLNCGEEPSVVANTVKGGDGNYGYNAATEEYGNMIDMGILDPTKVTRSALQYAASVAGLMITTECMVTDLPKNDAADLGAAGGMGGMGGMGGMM
UniProt P0AES4: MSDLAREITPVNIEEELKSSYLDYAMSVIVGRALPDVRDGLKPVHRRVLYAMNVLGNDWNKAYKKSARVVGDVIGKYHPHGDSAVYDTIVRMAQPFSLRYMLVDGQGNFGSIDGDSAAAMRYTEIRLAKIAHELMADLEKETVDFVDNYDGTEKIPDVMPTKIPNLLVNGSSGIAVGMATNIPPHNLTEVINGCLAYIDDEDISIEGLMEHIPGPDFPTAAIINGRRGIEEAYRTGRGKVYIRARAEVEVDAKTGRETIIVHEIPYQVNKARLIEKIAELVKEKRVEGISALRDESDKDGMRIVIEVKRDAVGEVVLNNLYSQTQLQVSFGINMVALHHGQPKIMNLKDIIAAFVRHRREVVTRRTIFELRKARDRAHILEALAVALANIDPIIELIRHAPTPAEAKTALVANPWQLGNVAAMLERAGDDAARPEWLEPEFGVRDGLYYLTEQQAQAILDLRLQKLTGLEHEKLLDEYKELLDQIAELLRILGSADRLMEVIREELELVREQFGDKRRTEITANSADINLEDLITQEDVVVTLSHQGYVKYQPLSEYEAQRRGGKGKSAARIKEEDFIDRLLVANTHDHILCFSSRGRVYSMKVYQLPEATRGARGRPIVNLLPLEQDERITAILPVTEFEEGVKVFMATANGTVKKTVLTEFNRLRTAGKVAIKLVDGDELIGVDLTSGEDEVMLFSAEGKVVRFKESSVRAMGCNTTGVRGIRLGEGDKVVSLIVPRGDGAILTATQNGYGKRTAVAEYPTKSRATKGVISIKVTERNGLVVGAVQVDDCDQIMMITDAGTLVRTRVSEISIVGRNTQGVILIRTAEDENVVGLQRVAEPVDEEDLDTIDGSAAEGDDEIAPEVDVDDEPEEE
UniProt P60785: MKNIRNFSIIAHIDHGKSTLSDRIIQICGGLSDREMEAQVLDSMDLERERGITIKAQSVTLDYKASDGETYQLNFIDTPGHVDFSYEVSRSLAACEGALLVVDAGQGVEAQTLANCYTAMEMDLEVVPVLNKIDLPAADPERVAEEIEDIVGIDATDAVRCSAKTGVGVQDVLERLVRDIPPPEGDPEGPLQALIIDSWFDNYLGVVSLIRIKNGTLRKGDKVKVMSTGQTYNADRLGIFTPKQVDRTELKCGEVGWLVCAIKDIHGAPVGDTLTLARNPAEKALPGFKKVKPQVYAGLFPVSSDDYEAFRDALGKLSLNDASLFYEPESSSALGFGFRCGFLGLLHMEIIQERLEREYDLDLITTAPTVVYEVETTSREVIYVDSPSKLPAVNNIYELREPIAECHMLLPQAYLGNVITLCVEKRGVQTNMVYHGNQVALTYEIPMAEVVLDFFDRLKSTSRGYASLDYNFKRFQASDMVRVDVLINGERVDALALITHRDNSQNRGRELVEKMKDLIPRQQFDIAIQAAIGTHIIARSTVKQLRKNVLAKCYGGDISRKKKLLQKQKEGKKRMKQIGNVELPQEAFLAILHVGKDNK
UniProt P07813: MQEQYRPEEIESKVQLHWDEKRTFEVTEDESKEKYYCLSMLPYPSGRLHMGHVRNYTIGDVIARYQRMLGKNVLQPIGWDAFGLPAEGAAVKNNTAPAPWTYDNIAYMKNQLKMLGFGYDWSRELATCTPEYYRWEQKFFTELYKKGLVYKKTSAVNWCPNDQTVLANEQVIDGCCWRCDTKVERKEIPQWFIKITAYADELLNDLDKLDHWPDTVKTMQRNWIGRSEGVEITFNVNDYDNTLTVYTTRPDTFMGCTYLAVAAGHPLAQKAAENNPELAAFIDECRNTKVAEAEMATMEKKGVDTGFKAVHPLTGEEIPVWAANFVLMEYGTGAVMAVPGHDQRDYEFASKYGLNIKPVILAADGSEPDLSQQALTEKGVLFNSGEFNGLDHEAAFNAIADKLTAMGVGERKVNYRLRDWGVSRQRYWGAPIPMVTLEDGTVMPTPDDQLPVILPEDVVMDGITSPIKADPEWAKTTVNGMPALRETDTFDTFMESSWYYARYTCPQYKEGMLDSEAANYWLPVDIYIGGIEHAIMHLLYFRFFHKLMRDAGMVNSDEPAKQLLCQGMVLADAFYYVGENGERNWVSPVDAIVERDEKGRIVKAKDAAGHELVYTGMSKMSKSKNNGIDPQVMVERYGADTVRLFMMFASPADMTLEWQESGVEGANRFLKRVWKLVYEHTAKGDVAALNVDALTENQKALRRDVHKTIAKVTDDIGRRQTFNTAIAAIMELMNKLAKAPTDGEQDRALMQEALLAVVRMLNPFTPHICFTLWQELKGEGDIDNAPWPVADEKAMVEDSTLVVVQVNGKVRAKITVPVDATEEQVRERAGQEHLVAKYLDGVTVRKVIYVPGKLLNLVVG
UniProt P13009: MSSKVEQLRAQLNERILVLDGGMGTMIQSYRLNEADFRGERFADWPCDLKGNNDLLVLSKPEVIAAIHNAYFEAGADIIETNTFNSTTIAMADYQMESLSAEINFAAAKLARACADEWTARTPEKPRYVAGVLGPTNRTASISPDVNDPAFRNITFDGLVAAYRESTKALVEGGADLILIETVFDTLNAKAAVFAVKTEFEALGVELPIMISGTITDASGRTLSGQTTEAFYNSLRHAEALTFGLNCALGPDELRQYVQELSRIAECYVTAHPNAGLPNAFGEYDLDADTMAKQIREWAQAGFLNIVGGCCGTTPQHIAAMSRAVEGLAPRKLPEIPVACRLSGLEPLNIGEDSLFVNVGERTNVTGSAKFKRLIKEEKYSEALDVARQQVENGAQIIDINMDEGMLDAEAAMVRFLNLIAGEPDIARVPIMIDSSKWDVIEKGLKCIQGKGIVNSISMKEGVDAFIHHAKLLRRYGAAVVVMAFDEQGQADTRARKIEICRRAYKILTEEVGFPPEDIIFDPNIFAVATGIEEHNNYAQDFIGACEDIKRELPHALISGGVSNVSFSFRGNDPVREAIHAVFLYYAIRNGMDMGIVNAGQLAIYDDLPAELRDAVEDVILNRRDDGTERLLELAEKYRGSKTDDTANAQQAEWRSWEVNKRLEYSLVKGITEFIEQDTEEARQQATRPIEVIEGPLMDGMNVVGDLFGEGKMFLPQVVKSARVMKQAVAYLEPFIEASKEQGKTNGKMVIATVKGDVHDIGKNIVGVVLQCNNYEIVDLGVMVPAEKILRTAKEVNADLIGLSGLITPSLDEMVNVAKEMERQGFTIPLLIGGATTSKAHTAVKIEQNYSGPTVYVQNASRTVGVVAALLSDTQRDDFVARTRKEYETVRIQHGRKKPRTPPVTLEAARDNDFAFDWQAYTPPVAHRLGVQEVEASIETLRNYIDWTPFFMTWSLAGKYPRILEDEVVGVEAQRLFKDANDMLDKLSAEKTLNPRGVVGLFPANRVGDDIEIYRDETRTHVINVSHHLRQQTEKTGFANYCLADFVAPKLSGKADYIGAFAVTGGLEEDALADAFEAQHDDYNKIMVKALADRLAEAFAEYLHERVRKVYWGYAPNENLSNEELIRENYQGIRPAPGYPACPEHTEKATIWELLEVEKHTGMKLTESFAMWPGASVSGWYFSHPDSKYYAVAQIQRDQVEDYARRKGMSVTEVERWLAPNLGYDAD
UniProt P37744: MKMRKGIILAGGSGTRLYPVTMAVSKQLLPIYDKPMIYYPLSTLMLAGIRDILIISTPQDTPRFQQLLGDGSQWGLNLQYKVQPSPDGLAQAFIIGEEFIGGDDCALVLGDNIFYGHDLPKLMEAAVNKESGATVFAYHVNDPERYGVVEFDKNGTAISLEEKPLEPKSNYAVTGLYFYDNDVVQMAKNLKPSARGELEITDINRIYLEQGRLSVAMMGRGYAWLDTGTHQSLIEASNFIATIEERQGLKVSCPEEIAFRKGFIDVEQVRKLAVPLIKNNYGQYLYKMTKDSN
UniProt P24255: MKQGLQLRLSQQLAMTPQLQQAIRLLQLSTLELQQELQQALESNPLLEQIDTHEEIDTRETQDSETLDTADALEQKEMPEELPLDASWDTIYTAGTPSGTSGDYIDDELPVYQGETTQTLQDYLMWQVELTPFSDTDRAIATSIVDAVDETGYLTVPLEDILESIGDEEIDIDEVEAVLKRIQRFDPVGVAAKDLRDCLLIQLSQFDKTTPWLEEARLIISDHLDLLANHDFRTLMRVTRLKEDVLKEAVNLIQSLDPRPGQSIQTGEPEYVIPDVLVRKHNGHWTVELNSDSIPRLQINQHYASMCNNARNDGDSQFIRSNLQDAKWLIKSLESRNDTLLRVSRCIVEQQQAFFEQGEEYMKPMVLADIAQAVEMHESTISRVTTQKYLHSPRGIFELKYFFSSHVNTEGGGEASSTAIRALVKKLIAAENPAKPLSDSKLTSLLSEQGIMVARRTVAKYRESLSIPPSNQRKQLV

Row | binding [1] | binding [2] | Substance | also measured
1 | binds | binds | nascent AceE (from UniProt P0AFG8 1-887) | binding [3]: binds
2 | binds | binds | nascent GyrA (from UniProt P0AES4 1-875) | 
3 |  | binds | nascent LepA (from UniProt P60785 1-599) | 
4 |  | binds | nascent LeuS (from UniProt P07813 1-860) | 
5 |  | binds | nascent MetH (from UniProt P13009 1-1227) | 
6 | binds |  | nascent RfbA (from UniProt P37744 1-293) | 
7 |  |  | nascent RpoN (from UniProt P24255 1-477) | binding [4]: binds
8 |  |  | nascent SpeC (from UniProt P21169 1-711) | binding [4]: binds

— publication PMC12065913
